According to publication doi:10.1101/2022.03.29.486232:
These are yes or no findings as the source states them, for the method shown. Binding seen in cells or lysates may run through a third protein. A yes stands for co-enrichment or nearness to the bait. Other partners may have been found. Sequences can lack the tags named with a protein.

B1: Bcas1 (protein, UniProt Q80YN3 1-633)
chain: MGNQMSVPLRPGDQEHDPGADTCKVTSDNECVQNGNPVVLSTRVIQHYEEVDLGISSSKDNVATSSPKTMEAQAVGDASGKNLGKEAKTKAPAARSHFFLTLSRPVPGRPGDQGTDSSAASGRFDVSPSAAPENKDPSEHGALPVAAAPGQAPDKTPGCPEAKQQTLPATGPLAPSPPESQAEAPAQDKDFGFLNRFFKLDKGRESAPVNSQPKEAKGSEDPEQATEAPAVPGNPHGVSAGEDIVDSEQRGQDVDTLSYSVPGDPEVPGTTKEDPQVVDTTENSSSIMSFFKTLVSPNKTETKKDPEDTKATKADSVCDGHAAGQKMSETQAKSKKKRLDSPRLGLSFRKLFRHKDTENSPTTSANLKSDKANFTPQETRGKTKATKSCSPPPPPPEPTSEGRDSGKEKAGPTSLPLGKLFWKKSVKEDTLSTGAEENAVCESPVETVRLEEVESSLQTVDLSEETQPEPTDVKVKEESKPRKTPLMAFLRQMSVRSSEGIPRSEESNVKDSSCQTSNSVEKTPSPPEPEPAGTAQKNKETSSSKDKKSVDKKSATENSKQKNGKQEVREPAPCVQPPTVEANAMQTGDKTPKKSEKRRQSLGGFLKGLGPKRMSDAQVQTDPVSIGPVGKSK
B2: excitatory amino acid transporter EAA1 (GLAST-1) (protein, UniProt P56564 1-543)
chain: MTKSNGEEPRMGGRMERLQQGVRKRTLLAKKKVQSLTKEDVKSYLFRNAFVLLTVTAVIVGTILGFALRPYKMSYREVKYFSFPGELLMRMLQMLVLPLIISSLVTGMAALDSKASGKMGMRAVVYYMTTTIIAVVIGIIIVIIIHPGKGTKENMYREGKIVQVTAADAFLDLIRNMFPPNLVEACFKQFKTSYEKRSFKVPIQSNETLLGAVINNVSEAMETLTRIREEMVPVPGSVNGVNALGLVVFSMCFGFVIGNMKEQGQALREFFDSLNEAIMRLVAVIMWYAPLGILFLIAGKIVEMEDMGVIGGQLAMYTVTVIVGLLIHAVIVLPLLYFLVTRKNPWVFIGGLLQALITALGTSSSSATLPITFKCLEENNGVDKRITRFVLPVGATINMDGTALYEALAAIFIAQVNNFDLNFGQIITISITATAASIGAAGIPQAGLVTMVIVLTSVGLPTDDITLIIAVDWFLDRLRTTTNVLGDSLGAGIVEHLSRHELKNRDVEMGNSVIEENEMKKPYQLIAQDNEPEKPVADSETKM
B3: Glutathione S-transferase Mu 1 (GSTM1) (enzyme, UniProt P10649 1-218)
chain: MPMILGYWNVRGLTHPIRMLLEYTDSSYDEKRYTMGDAPDFDRSQWLNEKFKLGLDFPNLPYLIDGSHKITQSNAILRYLARKHHLDGETEEERIRADIVENQVMDTRMQLIMLCYNPDFEKQKPEFLKTIPEKMKLYSEFLGKRPWFAGDKVTYVDFLAYDILDQYRMFEPKCLDAFPNLRDFLARFEGLKKISAYMKSSRYIATPIFSKMAHWSNK
B4: stratifin (14-3-3 S) (protein, UniProt O70456 1-248)
chain: MERASLIQKAKLAEQAERYEDMAAFMKSAVEKGEELSCEERNLLSVAYKNVVGGQRAAWRVLSSIEQKSNEEGSEEKGPEVKEYREKVETELRGVCDTVLGLLDSHLIKGAGDAESRVFYLKMKGDYYRYLAEVATGDDKKRIIDSARSAYQEAMDISKKEMPPTNPIRLGLALNFSVFHYEIANSPEEAISLAKTTFDEAMADLHTLSEDSYKDSTLIMQLLRDNLTLWTADSAGEEGGEAPEEPQS
B5: mitochondrial amino acid transporter GHC1 (Slc25a22) (protein, UniProt Q9D6M3 1-323)
chain: MADKQISLPAKLINGGIAGLIGVTCVFPIDLAKTRLQNQQNGQRMYASMSDCLIKTIRSEGYFGMYRGAAVNLTLVTPEKAIKLAANDFFRHQLSKDGQKLTLPKEMLAGCGAGTCQVIVTTPMEMLKIQLQDAGRIAAQRKILAAQAQLSAQGGAQPSVEAPAPPRPTATQLTRDLLRNHGIAGLYKGLGATLLRDVPFSIVYFPLFANLNQLGRPSSEEKSPFYVSFLAGCVAGSAAAVAVNPCDVVKTRLQSLERGVNEDTYSGFLDCARKIWRHEGPSAFLKGAYCRALVIAPLFGIAQVVYFLGIAESLLGLLQEPQA
B6: MPP2 (protein, UniProt Q9WV34 1-552)
chain: MPVAATNSESAMQQVLDNLGSLPNATGAAELDLIFLRGIMESPIVRSLAKAHERLEETKLEAVRDNNLELVQEILRDLAELAEQSSTAAELARILQEPHFQSLLETHDSVASKTYETPPPSPGLDPTFSNQPVPPDAVRMVGIRKTAGEHLGVTFRVEGGELVIARILHGGMVAQQGLLHVGDIIKEVNGQPVGSDPRALQELLRSASGSVILKILPSYQEPHLPRQVFVKCHFDYDPARDSLSPCKEAGLRFNAGDLLQIVNQDDANWWQACHVEGGSAGLIPSQLLEEKRKAFVKRDLELTPTSGTLCGSLSGKKKKRMMYLTTKNAEFDRHELLIYEEVARMPPFRRKTLVLIGAQGVGRRSLKNKLILWDPDRYGTTVPYTSRRPKDSEREGQGYSFVSRGEMEADIRAGRYLEHGEYEGNLYGTRIDSIRGVVASGKVCVLDVNPQAVKVLRTAEFVPYVVFIEAPDYETLRAMNRAALESGVSTKQLTEADLRRTVEESSRIQRGYGHYFDLSLVNSNLERTFRELQTAMEKLRTEPQWVPVSWVY
B7: CASK (protein, UniProt O70589 1-926)
chain: MADDDVLFEDVYELCEVIGKGPFSVVRRCINRETGQQFAVKIVDVAKFTSSPGLSTEDLKREASICHMLKHPHIVELLETYSSDGMLYMVFEFMDGADLCFEIVKRADAGFVYSEAVASHYMRQILEALRYCHDNNIIHRDVKPHCVLLASKENSAPVKLGGFGVAIQLGESGLVAGGRVGTPHFMAPEVVKREPYGKPVDVWGCGVILFILLSGCLPFYGTKERLFEGIIKGKYKMNPRQWSHISESAKDLVRRMLMLDPAERITVYEALNHPWLKERDRYAYKIHLPETVEQLRKFNARRKLKGAVLAAVSSHKFNSFYGDPPEELPDFSEDPTSSGLLAAERAVSQVLDSLEEIHALTDCSEKDLDFLHSVFQDQHLHTLLDLYDKINTKSSPQIRNPPSDAVQRAKEVLEEISCYPENNDAKELKRILTQPHFMALLQTHDVVAHEVYSDEALRVTPPPTSPYLNGDSPESANGDMDMENVTRVRLVQFQKNTDEPMGITLKMNELNHCIVARIMHGGMIHRQGTLHVGDEIREINGISVANQTVEQLQKMLREMRGSITFKIVPSYRTQSSSCERDSPSTSRQSPANGHSSTNNSVSDLPSTTQPKGRQIYVRAQFEYDPAKDDLIPCKEAGIRFRVGDIIQIISKDDHNWWQGKLENSKNGTAGLIPSPELQEWRVACIAMEKTKQEQQASCTWFGKKKKQYKDKYLAKHNAVFDQLDLVTYEEVVKLPAFKRKTLVLLGAHGVGRRHIKNTLITKHPDRFAYPIPHTTRPPKKDEENGKNYYFVSHDQMMQDISNNEYLEYGSHEDAMYGTKLETIRKIHEQGLIAILDVEPQALKVLRTAEFAPFVVFIAAPTITPGLNEDESLQRLQKESDVLQRTYAHYFDLTIINNEIDETIRHLEEAVELVCTAPQWVPVSWVY
B8: Kv beta subunit KCAB1 (protein, UniProt P63143 1-401)
chain: MQVSIACTEHNLKSRNGEDRLLSKQSSNAPNVVNAARAKFRTVAIIARSLGTFTPQHHISLKESTAKQTGMKYRNLGKSGLRVSCLGLGTWVTFGGQISDEVAERLMTIAYESGVNLFDTAEVYAAGKAEVILGSIIKKKGWRRSSLVITTKLYWGGKAETERGLSRKHIIEGLKGSLQRLQLEYVDVVFANRPDSNTPMEEIVRAMTHVINQGMAMYWGTSRWSAMEIMEAYSVARQFNMIPPVCEQAEYHLFQREKVEVQLPELYHKIGVGAMTWSPLACGIISGKYGNGVPESSRASLKCYQWLKERIVSEEGRKQQNKLKDLSPIAERLGCTLPQLAVAWCLRNEGVSSVLLGSSTPEQLIENLGAIQVLPKMTSHVVNEIDNILRNKPYSKKDYRS
B9: Kv beta subunit KCAB2 (protein, UniProt P62482 1-367)
chain: MYPESTTGSPARLSLRQTGSPGMIYSTRYGSPKRQLQFYRNLGKSGLRVSCLGLGTWVTFGGQITDEMAEHLMTLAYDNGINLFDTAEVYAAGKAEVVLGNIIKKKGWRRSSLVITTKIFWGGKAETERGLSRKHIIEGLKASLERLQLEYVDVVFANRPDPNTPMEETVRAMTHVINQGMAMYWGTSRWSSMEIMEAYSVARQFNLIPPICEQAEYHMFQREKVEVQLPELFHKIGVGAMTWSPLACGIVSGKYDSGIPPYSRASLKGYQWLKDKILSEEGRRQQAKLKELQAIAERLGCTLPQLAIAWCLRNEGVSSVLLGASNAEQLMENIGAIQVLPKLSSSIVHEIDSILGNKPYSKKDYRS

Target: T1, leucine-rich glioma-inactivated 1 (LGI1), native, from mouse brain (mouse (endogenous in mouse brain)) (UniProt Q9JIA1)
T1 sequence: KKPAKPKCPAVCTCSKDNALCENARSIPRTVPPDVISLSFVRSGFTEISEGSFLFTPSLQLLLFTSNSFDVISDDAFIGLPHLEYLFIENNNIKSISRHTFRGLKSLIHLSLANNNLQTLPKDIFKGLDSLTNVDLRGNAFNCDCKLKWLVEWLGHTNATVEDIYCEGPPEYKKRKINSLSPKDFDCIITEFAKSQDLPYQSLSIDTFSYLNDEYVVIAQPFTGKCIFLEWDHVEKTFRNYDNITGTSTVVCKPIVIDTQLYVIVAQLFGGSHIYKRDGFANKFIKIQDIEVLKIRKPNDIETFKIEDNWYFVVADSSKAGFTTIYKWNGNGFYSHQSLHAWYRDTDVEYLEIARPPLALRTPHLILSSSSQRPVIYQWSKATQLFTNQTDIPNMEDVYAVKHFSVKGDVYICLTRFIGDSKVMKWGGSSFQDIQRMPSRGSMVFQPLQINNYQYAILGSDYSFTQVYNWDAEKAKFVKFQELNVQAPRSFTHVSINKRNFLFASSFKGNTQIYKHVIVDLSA
Test: affinity purification with mass spectrometry

Row | Binder | binding
1 | B1 | binds
2 | B2 | binds
3 | B3 | binds
4 | B4 | binds
5 | B5 | binds
6 | B6 | binds
7 | B7 | binds
8 | B8 | binds
9 | B9 | binds
